Measured values published in publication PMC8465894.
No constants are given. Whether binding was seen depends on the method and setting. Some entries that bind do so weakly or less than the wild type. For some of these results: Tags and fused reporters may be left off the sequences shown.

Legend:
[1] = target: T1, hPIGK-StrepII-GST (human) (UniProt Q92643); assay: non-reducing SDS-PAGE with western blot; samples of K562K cells stably expressing tagged PIGK, sample buffer with (+DTT) or without (-DTT) dithiothreitol; PIGK detected by anti-GST or anti-StrepII; shift to higher molecular weight without DTT
T1 sequence: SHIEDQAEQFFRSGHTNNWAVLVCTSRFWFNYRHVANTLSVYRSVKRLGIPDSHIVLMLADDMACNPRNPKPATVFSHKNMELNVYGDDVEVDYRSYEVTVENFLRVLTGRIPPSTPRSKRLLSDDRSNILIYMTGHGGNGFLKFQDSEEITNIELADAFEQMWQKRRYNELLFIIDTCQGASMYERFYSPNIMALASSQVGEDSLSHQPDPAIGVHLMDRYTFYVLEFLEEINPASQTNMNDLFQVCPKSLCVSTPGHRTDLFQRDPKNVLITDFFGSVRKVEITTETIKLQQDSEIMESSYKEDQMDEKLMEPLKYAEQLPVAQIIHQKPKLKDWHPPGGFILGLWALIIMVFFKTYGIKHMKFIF

[2] = target: T2, hPIGK-StrepII (human) (UniProt Q92643); assay: as above
T2 sequence: T1 sequence

[3] = target: T2, hPIGK-StrepII (human); assay: non-reducing SDS-PAGE with silver staining and western blot; GPI-TA complex purified by PIGK-StrepII in GDN; samples with (+DTT) or without (-DTT) dithiothreitol; anti-StrepII detects PIGK-StrepII
[4] = target: T1, hPIGK-StrepII-GST (human); assay: non-reducing SDS-PAGE with western blot; GPI-TA complex purified on StrepTactin Sepharose in DDM, DDM-CHS or digitonin; disulfide bond between PIGK and PIGT examined (Figure S7D)

binding [1]: binds
binding [2]: binds
binding [3]: binds
binding [4]: binds
B1: PIGT (protein, UniProt Q969N2 22-578)
chain: LAEPPRDSLREELVITPLPSGDVAATFQFRTRWDSELQREGVSHYRLFPKALGQLISKYSLRELHLSFTQGFWRTRYWGPPFLQAPSGAELWVWFQDTVTDVDKSWKELSNVLSGIFCASLNFIDSTNTVTPTASFKPLGLANDTDHYFLRYAVLPREVVCTENLTPWKKLLPCSSKAGLSVLLKADRLFHTSYHSQAVHIRPVCRNARCTSISWELRQTLSVVFDAFITGQGKKDWSLFRMFSRTLTEPCPLASESRVYVDITTYNQDNETLEVHPPPTTTYQDVILGTRKTYAIYDLLDTAMINNSRNLNIQLKWKRPPENEAPPVPFLHAQRYVSGYGLQKGELSTLLYNTHPYRAFPVLLLDTVPWYLRLYVHTLTITSKGKENKPSYIHYQPAQDRLQPHLLEMLIQLPANSVTKVSIQFERALLKWTEYTPDPNHGFYVSPSVLSALVPSMVAAKPVDWEESPLFNSLFPVSDGSNYFVRLYTEPLLVNLPTPDFSMPYNVICLTCTVVAVCYGSFYNLLTRTFHIEEPRTGGLAKRLANLIRRARGVPPL
